Reference: paper PMC11477000, “Enantioselective Binding of Proton Pump Inhibitors to Alpha1-Acid Glycoprotein and Human Serum Albumin—A Chromatographic, Spectroscopic, and In Silico Study” (International Journal of Molecular Sciences, 2024)

Experiments:
[1] = test system: α1-acid glycoprotein (AGP); assay: HPLC on AGP-based chiral stationary phase (ChromTech Chiral-AGP column); type: binding, human; settings: 25 °C
Experimental: HPLC using a protein-based chiral stationary phase is a fully automated method for obtaining rapid information about the binding of compounds to the respective proteins. Enantioseparation occurs in the case of unequal binding constants of the individual enantiomers to the immobilized proteins, thus allowing enantioselective binding to be characterized even when a racemic mixture was injected. As a preliminary step, the enantiospecific binding was investigated on columns containing AGP and HSA in various alcohol:buffer mixtures. A pH 7 phosphate buffer was employed as the aqueous part of the mobile phase, while for the organic part, three different alcohols were evaluated. […]
Chromatographic measurements were carried out on two separate HPLC systems. The AGP binding study was performed on a Waters 2695e chromatographic system paired with a Waters 2996 PDA detector, controlled by Empower 3 FR5 (Waters Corp., Milford, MA, USA), while the HSA binding study was performed on an Agilent 1100 HPLC system, consisting of an inline degasser (G1322A), a quaternary pump (G1311A), an automatic injector (G1329A) paired with sample thermostat (G1330A), a column thermostat (G1316A), and a diode array detector (G1315A) with Agilent Chemstation B04.03-SP2 software (Agilent, Bronnwald, Germany). For the binding studies, two protein-based chiral stationary phases were utilized. The chromatographic binding study for AGP was conducted on a ChromTech Chiral-AGP column (150 mm × 4.0 mm; ChromTech Ltd., Congleton, UK), while the binding study for HSA was performed on a Daicel Chiralpak HSA column (50 mm × 4.0 mm; Daicel Corp., Osaka, Japan). The detection wavelength was 210 nm for all measurements. The stock solutions of PPIs were prepared at a concentration of 1 mg/mL in MeOH. Subsequent dilutions were prepared using water. The injected samples were mixed and diluted from the stock solutions. The final concentration for the eutomer was 0.2 mg/mL, and for the distomer, it was 0.1 mg/mL. A volume of 2 μL was injected. To mitigate the instability of PPIs in aqueous solutions, the samples were kept at a temperature of 4 °C.

[2] = test system: α1-acid glycoprotein (AGP); assay: van 't Hoff thermodynamic analysis on AGP column; type: binding, human; settings: for Δ(ΔG°) / Δ(ΔH°) / Δ(ΔS°): pH 7, 95:5 buffer:IPA, 10–30 °C
Experimental: The temperature effect was investigated at pH 7 and a 95:5 buffer:IPA eluents ratio, between 10 and 30 °C on both columns. […] The determination of thermodynamic parameters can provide valuable insights into the process of enantiodiscrimination, including its mechanistic aspects. The applied classical van ’t Hoff methodology postulates the existence of solely enantioselective interaction sites on the stationary phase. Nonetheless, it should be emphasized that a more realistic approach would encompass both enantioselective and non-enantioselective interactions. The isoenantioselective temperatures (Tiso) were calculated by dividing Δ(ΔH°) by Δ(ΔS°). At this temperature, enthalpy and entropy compensations negate each other, resulting in the coelution of the two enantiomers and no separation. The Q values (Q = Δ(ΔH°)/T × Δ(ΔS°)298K) were used for visualizing the relative contribution of enthalpic and entropic terms to the free energy of adsorption. If the Q values were smaller than 1, the enantioseparation was controlled by entropy to a higher extent.
Classical van ’t Hoff analysis was applied to determine the thermodynamic parameters. Van ’t Hoff plots were constructed by plotting the natural logarithm of the retention factor as a function of the inverse of the absolute temperature (thermodynamic temperature) over a temperature range of 10–30 °C:(5) […]
In the equation, R represents the universal gas constant, T represents the absolute temperature in Kelvin, and k represents the retention factor of the enantiomers. ΔH° stands for the standard enthalpy, while ΔS° represents the standard entropy change of transfer of the solute from the mobile phase to the stationary phase. Φ is the phase ratio of the column. If ΔH° remains constant within the selected temperature range, a linear relationship can be observed between lnk and 1/T. The slope of this relationship is −ΔH°/R, and the intercept is ΔS°/R + ln Φ. Since the value of the phase ratio is rarely known, ΔS°* values (ΔS°* = ΔS° + Rln Φ) are often used to account for the uncertainty in Φ. Similarly, the difference in the change of standard enthalpy, Δ(ΔH°), and standard entropy, Δ(ΔS°), for the two enantiomers was calculated as follows:(6) lnα=−ΔΔH°/RT+ΔΔS°/R

[3] = 2.5% IPA, 10 mM pH 7 phosphate buffer
[4] = 5% EtOH, 10 mM pH 7 phosphate buffer
[5] = 5% IPA, 10 mM pH 7 phosphate buffer
[6] = 5% MeOH, 10 mM pH 7 phosphate buffer
[7] = 7.5% EtOH, 10 mM pH 7 phosphate buffer
[8] = 7.5% IPA, 10 mM pH 7 phosphate buffer
[9] = 7.5% MeOH, 10 mM pH 7 phosphate buffer
[10] = 10% EtOH, 10 mM pH 7 phosphate buffer
[11] = 10% IPA, 10 mM pH 7 phosphate buffer
[12] = 10% MeOH, 10 mM pH 7 phosphate buffer
[13] = 12.5% IPA, 10 mM pH 7 phosphate buffer
[14] = 15% EtOH, 10 mM pH 7 phosphate buffer
[15] = 15% IPA, 10 mM pH 7 phosphate buffer
[16] = 15% MeOH, 10 mM pH 7 phosphate buffer
[17] = acetate buffer, 2.5% 2-propanol
[18] = bicarbonate buffer, 2.5% 2-propanol
[19] = citrate buffer, 2.5% 2-propanol
[20] = phosphate buffer, 2.5% 2-propanol
[21] = difference between the two enantiomers

Compound	EEO enantiomer elution order [1, 3]	Rs resolution [1, 3]	EEO enantiomer elution order [1, 4]	Rs resolution [1, 4]	EEO enantiomer elution order [1, 5]	Rs resolution [1, 5]	EEO enantiomer elution order [1, 6]	Rs resolution [1, 6]	EEO enantiomer elution order [1, 7]	Rs resolution [1, 7]	EEO enantiomer elution order [1, 9]	Rs resolution [1, 9]	EEO enantiomer elution order [1, 12]	Rs resolution [1, 12]	EEO enantiomer elution order [1, 16]	Rs resolution [1, 16]	Rs resolution [1, 17]	Rs resolution [1, 18]	Rs resolution [1, 19]	Rs resolution [1, 20]	also measured
Cc1c(OCC(F)(F)F)ccnc1C[S+]([O-])c1nc2ccccc2[nH]1 (centres unmarked) [Lansoprazole, lansoprazole]	S < R	1.5	S < R	1.3	S < R	1.7	S < R	1.2	S < R	1.3	S < R	1.1	S < R	1.1	S < R	0.9	0.8	1.7	2.2	1.5	EEO enantiomer elution order [1, 8]: S < R; Rs resolution [1, 8]: 1.5; EEO enantiomer elution order [1, 10]: S < R; Rs resolution [1, 10]: 1.2; EEO enantiomer elution order [1, 11]: S < R; Rs resolution [1, 11]: 1.3; EEO enantiomer elution order [1, 13]: S < R; Rs resolution [1, 13]: 1.1; EEO enantiomer elution order [1, 14]: S < R; Rs resolution [1, 14]: 1.0; EEO enantiomer elution order [1, 15]: S < R; Rs resolution [1, 15]: 0.8; Q ([2]; Q = Δ(ΔH°)/T × Δ(ΔS°)298K): 0.9; Δ(ΔG°) [2, 21]: -0.382 kcal/mol; Δ(ΔH°) [2, 21]: 2.32 kcal/mol
COc1ccc2[nH]c([S+]([O-])Cc3ncc(C)c(OC)c3C)nc2c1 (centres unmarked) [Omeprazole, omeprazole]	R < S	1.2	R < S	1.0	–	–	R < S	1.8	R < S	0.2	R < S	1.5	R < S	1.1	R < S	1.3	1.3	0.61	1.3	1.2	–
Cc1c(OCC(F)(F)F)ccnc1C[S@@+]([O-])c1nc2ccccc2[nH]1 [R-lansoprazole, dexlansoprazole]	–	–	–	–	–	–	–	–	–	–	–	–	–	–	–	–	–	–	–	–	Δ(ΔG°) ([2]; single enantiomer): -1.58 kcal/mol; Δ(ΔH°) ([2]; single enantiomer): -5.31 kcal/mol; Δ(ΔS°) ([2]; single enantiomer): −52.7 J/molK
COCCCOc1ccnc(C[S+]([O-])c2nc3ccccc3[nH]2)c1C (centres unmarked) [Rabeprazole, rabeprazole]	R < S	2.5	R < S	2.9	R < S	1.0	R < S	3.7	R < S	2.0	R < S	2.6	R < S	3.1	R < S	3.4	1.5	0.81	0.49	2.5	EEO enantiomer elution order [1, 10]: R < S; Rs resolution [1, 10]: 1.4; EEO enantiomer elution order [1, 14]: R < S; Rs resolution [1, 14]: 0.6
Cc1c(OCC(F)(F)F)ccnc1C[S@+]([O-])c1nc2ccccc2[nH]1 [S-lansoprazole]	–	–	–	–	–	–	–	–	–	–	–	–	–	–	–	–	–	–	–	–	Δ(ΔG°) ([2]; single enantiomer): -1.2 kcal/mol; Δ(ΔH°) ([2]; single enantiomer): -7.67 kcal/mol; Δ(ΔS°) ([2]; single enantiomer): −90.9 J/molK
